The supplement of paper PMC8728848
Some of the results follow.

Assays:
Assay in all cases: glycan array binding signal (z-score within array); higher = stronger binding
Conditions in all cases: glycan notation: IUPAC condensed, linker removed
[1] = molecular target: Neu5Ac(a2-3)Gal(b1-3)GlcNAc(b1-2)Man(a1-3)[GlcNAc(b1-4)][Neu5Ac(a2-3)Gal(b1-3)GlcNAc(b1-2)Man(a1-6)]Man(b1-4)GlcNAc(b1-4)GlcNAc
Procedure, shortened: (§1)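 Columns mapping to the same glycan were averaged after glycan names were converted to IUPAC-condensed notation. The data come from 3228 arrays in the Consortium for Functional Glycomics database, limited to those with an available protein sequence. Binding is reported as a within-array Z-score averaged across arrays of one protein sequence and across linkers.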

[2] = molecular target: Neu5Ac(a2-3)Gal(b1-3)GlcNAc(b1-2)Man(a1-3)[Neu5Ac(a2-3)Gal(b1-3)GlcNAc(b1-2)Man(a1-6)]Man(b1-4)GlcNAc(b1-4)GlcNAc
Procedure, shortened: as §1

[3] = molecular target: Neu5Ac(a2-3)Gal(b1-3)GlcNAc(b1-3)Gal(b1-3)GlcNAc
Procedure, shortened: as §1

[4] = molecular target: Neu5Ac(a2-3)Gal(b1-3)GlcNAc(b1-3)Gal(b1-4)GlcNAc
Procedure, shortened: as §1

[5] = molecular target: Neu5Ac(a2-3)Gal(b1-3)GlcNAc(b1-3)GalNAc
Procedure, shortened: as §1

[6] = molecular target: Neu5Ac(a2-3)Gal(b1-3)GlcNAc(b1-4)Gal(b1-4)Glc
Procedure, shortened: as §1

[7] = molecular target: Neu5Ac(a2-3)Gal(b1-3)GlcNAc(b1-6)GalNAc
Procedure, shortened: as §1

[8] = molecular target: Neu5Ac(a2-3)Gal(b1-3)GlcNAc6S
Procedure, shortened: as §1

[9] = molecular target: Neu5Ac(a2-3)Gal(b1-3)[Fuc(a1-4)]GlcNAc
Procedure, shortened: as §1

[10] = molecular target: Neu5Ac(a2-3)Gal(b1-3)[Fuc(a1-4)]GlcNAc(b1-3)Gal(b1-3)[Fuc(a1-4)]GlcNAc
Procedure, shortened: as §1

[11] = molecular target: Neu5Ac(a2-3)Gal(b1-3)[Fuc(a1-4)]GlcNAc(b1-3)Gal(b1-4)[Fuc(a1-3)]GlcNAc
Procedure, shortened: as §1

[12] = molecular target: Neu5Ac(a2-3)Gal(b1-3)[GlcNAc(b1-6)]GalNAc
Procedure, shortened: as §1

[13] = molecular target: Neu5Ac(a2-3)Gal(b1-3)[Neu5Ac(a2-6)]GalNAc
Procedure, shortened: as §1

[14] = molecular target: Neu5Ac(a2-3)Gal(b1-3)[Neu5Ac(a2-6)]GlcNAc(b1-3)[Fuc(a1-3)[Gal(b1-4)]GlcNAc(b1-6)]Gal(b1-4)Glc
Procedure, shortened: as §1

[15] = molecular target: Neu5Ac(a2-3)Gal(b1-3)]Neu5Ac(a2-3)Gal(b1-4)]GlcNAc
Procedure, shortened: as §1

Neu5Ac(a2-3)Gal(b1-4)Glc = molecular target: Neu5Ac(a2-3)Gal(b1-4)Glc
Procedure, shortened: as §1

[16] = molecular target: Neu5Ac(a2-3)Gal(b1-4)GlcNAc
Procedure, shortened: as §1

[17] = molecular target: Neu5Ac(a2-3)Gal(b1-4)GlcNAc(b1-2)Man
Procedure, shortened: as §1

[18] = molecular target: Neu5Ac(a2-3)Gal(b1-4)GlcNAc(b1-2)Man(a1-3)[GlcNAc(b1-4)][Neu5Ac(a2-3)Gal(b1-4)GlcNAc(b1-2)Man(a1-6)]Man(b1-4)GlcNAc(b1-4)GlcNAc
Procedure, shortened: as §1

[19] = molecular target: Neu5Ac(a2-3)Gal(b1-4)GlcNAc(b1-2)Man(a1-3)[Neu5Ac(a2-3)Gal(b1-4)GlcNAc(b1-2)Man(a1-6)]Man(b1-4)GlcNAc(b1-4)GlcNAc
Procedure, shortened: as §1

[20] = molecular target: Neu5Ac(a2-3)Gal(b1-4)GlcNAc(b1-2)Man(a1-3)[Neu5Ac(a2-3)Gal(b1-4)GlcNAc(b1-2)Man(a1-6)]Man(b1-4)GlcNAc(b1-4)[Fuc(a1-6)]GlcNAc
Procedure, shortened: as §1

[21] = molecular target: Neu5Ac(a2-3)Gal(b1-4)GlcNAc(b1-2)Man(a1-3)[Neu5Ac(a2-6)Gal(b1-4)GlcNAc(b1-2)Man(a1-6)]Man(b1-4)GlcNAc(b1-4)GlcNAc
Procedure, shortened: as §1

[22] = molecular target: Neu5Ac(a2-3)Gal(b1-4)GlcNAc(b1-2)[Neu5Ac(a2-3)Gal(b1-4)GlcNAc(b1-4)]Man(a1-3)[GlcNAc(b1-4)][Neu5Ac(a2-3)Gal(b1-4)GlcNAc(b1-2)[Neu5Ac(a2-3)Gal(b1-4)GlcNAc(b1-6)]Man(a1-6)]Man(b1-4)GlcNAc(b1-4)GlcNAc
Procedure, shortened: as §1

[23] = molecular target: Neu5Ac(a2-3)Gal(b1-4)GlcNAc(b1-2)[Neu5Ac(a2-3)Gal(b1-4)GlcNAc(b1-4)]Man(a1-3)[GlcNAc(b1-4)][Neu5Ac(a2-3)Gal(b1-4)GlcNAc(b1-4)Man(a1-6)]Man(b1-4)GlcNAc(b1-4)GlcNAc
Procedure, shortened: as §1

[24] = molecular target: Neu5Ac(a2-3)Gal(b1-4)GlcNAc(b1-2)[Neu5Ac(a2-3)Gal(b1-4)GlcNAc(b1-6)]Man(a1-6)[Neu5Ac(a2-3)Gal(b1-4)GlcNAc(b1-2)Man(a1-3)]Man(b1-4)GlcNAc(b1-4)GlcNAc
Procedure, shortened: as §1

[25] = molecular target: Neu5Ac(a2-3)Gal(b1-4)GlcNAc(b1-2)[Neu5Ac(a2-3)Gal(b1-4)GlcNAc(b1-6)]Man(a1-6)[Neu5Ac(a2-3)Gal(b1-4)GlcNAc(b1-2)Man(a1-3)][GlcNAc(b1-4)]Man(b1-4)GlcNAc(b1-4)GlcNAc
Procedure, shortened: as §1

[26] = molecular target: Neu5Ac(a2-3)Gal(b1-4)GlcNAc(b1-3)Gal
Procedure, shortened: as §1

[27] = molecular target: Neu5Ac(a2-3)Gal(b1-4)GlcNAc(b1-3)Gal(b1-3)GlcNAc
Procedure, shortened: as §1

[28] = molecular target: Neu5Ac(a2-3)Gal(b1-4)GlcNAc(b1-3)Gal(b1-4)GlcNAc
Procedure, shortened: as §1

[29] = molecular target: Neu5Ac(a2-3)Gal(b1-4)GlcNAc(b1-3)Gal(b1-4)GlcNAc(b1-2)Man(a1-3)[Neu5Ac(a2-3)Gal(b1-4)GlcNAc(b1-3)Gal(b1-4)GlcNAc(b1-2)Man(a1-6)]Man(b1-4)GlcNAc(b1-4)GlcNAc
Procedure, shortened: as §1

[30] = molecular target: Neu5Ac(a2-3)Gal(b1-4)GlcNAc(b1-3)Gal(b1-4)GlcNAc(b1-3)Gal(b1-4)GlcNAc
Procedure, shortened: as §1

[31] = molecular target: Neu5Ac(a2-3)Gal(b1-4)GlcNAc(b1-3)Gal(b1-4)GlcNAc(b1-3)Gal(b1-4)GlcNAc(b1-2)Man(a1-3)[Neu5Ac(a2-3)Gal(b1-4)GlcNAc(b1-3)Gal(b1-4)GlcNAc(b1-3)Gal(b1-4)GlcNAc(b1-2)Man(a1-6)]GalNAc
Procedure, shortened: as §1

[32] = molecular target: Neu5Ac(a2-3)Gal(b1-4)GlcNAc(b1-3)Gal(b1-4)GlcNAc(b1-3)GalNAc
Procedure, shortened: as §1

[33] = molecular target: Neu5Ac(a2-3)Gal(b1-4)GlcNAc(b1-3)Gal(b1-4)GlcNAc(b1-3)[Neu5Ac(a2-3)Gal(b1-4)GlcNAc(b1-3)Gal(b1-4)GlcNAc(b1-6)]GalNAc
Procedure, shortened: as §1

[34] = molecular target: Neu5Ac(a2-3)Gal(b1-4)GlcNAc(b1-3)Gal(b1-4)GlcNAc(b1-6)[Gal(b1-3)]GalNAc
Procedure, shortened: as §1

[35] = molecular target: Neu5Ac(a2-3)Gal(b1-4)GlcNAc(b1-3)Gal(b1-4)[Fuc(a1-3)]GlcNAc
Procedure, shortened: as §1

[36] = molecular target: Neu5Ac(a2-3)Gal(b1-4)GlcNAc(b1-3)GalNAc
Procedure, shortened: as §1

[37] = molecular target: Neu5Ac(a2-3)Gal(b1-4)GlcNAc(b1-3)[Neu5Ac(a2-3)Gal(b1-4)GlcNAc(b1-6)]GalNAc
Procedure, shortened: as §1

B1: PX9961Q-bfa-504-27-504 (Bacteroides fragilis) (protein)
chain: NDWLDRKPADGIPSEDAITNYNDALTARTGMYDGIQGNSNATSYYGARMFYYGDVRADDMQARTQGMRSSSCYEMLYTVDDAPNMWNIPYNVIRRANRLIEAINEKKVTDATEAQIGKIYSEALVVRALVHFDLVRIYGMPYTADNGASLGVPVIVKPLERNDLPSRNTVAEVYTQVITDLTDAINSGYLAKDQTPGYINEWAAKALLTRVYLTKGDNENALKVAEDIITNSPYKLWTNEEYVNAWYKSNGAHTNEMIFEVVNASNDDWTDRNGIAYLLNENGYADAIVTKSFMNMLSQDPKDVRIGMVLPAQYDKDLQEEYGDAKIFINKFPADKDDVGEMRLNNLPLLRLSEVYLSAAEAAAKLGGHQDKAAKYLNEIVQRANPEAKAISEADATVERIILERRKEMIGEGQRYFDALRNNETIVRYKDEGDKGYHYSLIKESQSFDRTYFRAILPIPVDETNVNPNLRAQQNPGY
- glycan array binding signal (z-score) [1]: -0.652
- glycan array binding signal (z-score) [2]: -0.686
- glycan array binding signal (z-score) [3]: -0.939
- glycan array binding signal (z-score) [4]: 0.081
- glycan array binding signal (z-score) [5]: 0.193
- glycan array binding signal (z-score) [6]: -0.577
- glycan array binding signal (z-score) [7]: -0.896
- glycan array binding signal (z-score) [8]: 1.4
- glycan array binding signal (z-score) [9]: 0.453
- glycan array binding signal (z-score) [10]: 0.339
- glycan array binding signal (z-score) [11]: -0.611
- glycan array binding signal (z-score) [12]: -0.315
- glycan array binding signal (z-score) [13]: -0.652
- glycan array binding signal (z-score) [14]: -1.12
- glycan array binding signal (z-score) [15]: -0.275
- glycan array binding signal (z-score) (Neu5Ac(a2-3)Gal(b1-4)Glc): -0.356
- glycan array binding signal (z-score) [16]: -0.47
- glycan array binding signal (z-score) [17]: -0.285
- glycan array binding signal (z-score) [18]: -0.384
- glycan array binding signal (z-score) [19]: -0.533
- glycan array binding signal (z-score) [20]: -0.812
- glycan array binding signal (z-score) [21]: -0.28
- glycan array binding signal (z-score) [22]: -0.47
- glycan array binding signal (z-score) [23]: -0.92
- glycan array binding signal (z-score) [24]: 0.918
- glycan array binding signal (z-score) [25]: 0.676
- glycan array binding signal (z-score) [26]: -0.707
- glycan array binding signal (z-score) [27]: -0.674
- glycan array binding signal (z-score) [28]: -0.229
- glycan array binding signal (z-score) [29]: -0.056
- glycan array binding signal (z-score) [30]: -0.525
- glycan array binding signal (z-score) [31]: 1.33
- glycan array binding signal (z-score) [32]: -0.096
- glycan array binding signal (z-score) [33]: 1.19
- glycan array binding signal (z-score) [34]: 1.14
- glycan array binding signal (z-score) [35]: 0.229
- glycan array binding signal (z-score) [36]: -0.435
- glycan array binding signal (z-score) [37]: 0.693
